Laboratory results as given in the supplement of paper PMC10849652.
The list shows a part of the results.

Sequences of proteins named here, by UniProt entry; tags and fusion partners are left off. A change or cut given only in a name is not applied to a line headed by its entry.
UniProt Q9NRY4: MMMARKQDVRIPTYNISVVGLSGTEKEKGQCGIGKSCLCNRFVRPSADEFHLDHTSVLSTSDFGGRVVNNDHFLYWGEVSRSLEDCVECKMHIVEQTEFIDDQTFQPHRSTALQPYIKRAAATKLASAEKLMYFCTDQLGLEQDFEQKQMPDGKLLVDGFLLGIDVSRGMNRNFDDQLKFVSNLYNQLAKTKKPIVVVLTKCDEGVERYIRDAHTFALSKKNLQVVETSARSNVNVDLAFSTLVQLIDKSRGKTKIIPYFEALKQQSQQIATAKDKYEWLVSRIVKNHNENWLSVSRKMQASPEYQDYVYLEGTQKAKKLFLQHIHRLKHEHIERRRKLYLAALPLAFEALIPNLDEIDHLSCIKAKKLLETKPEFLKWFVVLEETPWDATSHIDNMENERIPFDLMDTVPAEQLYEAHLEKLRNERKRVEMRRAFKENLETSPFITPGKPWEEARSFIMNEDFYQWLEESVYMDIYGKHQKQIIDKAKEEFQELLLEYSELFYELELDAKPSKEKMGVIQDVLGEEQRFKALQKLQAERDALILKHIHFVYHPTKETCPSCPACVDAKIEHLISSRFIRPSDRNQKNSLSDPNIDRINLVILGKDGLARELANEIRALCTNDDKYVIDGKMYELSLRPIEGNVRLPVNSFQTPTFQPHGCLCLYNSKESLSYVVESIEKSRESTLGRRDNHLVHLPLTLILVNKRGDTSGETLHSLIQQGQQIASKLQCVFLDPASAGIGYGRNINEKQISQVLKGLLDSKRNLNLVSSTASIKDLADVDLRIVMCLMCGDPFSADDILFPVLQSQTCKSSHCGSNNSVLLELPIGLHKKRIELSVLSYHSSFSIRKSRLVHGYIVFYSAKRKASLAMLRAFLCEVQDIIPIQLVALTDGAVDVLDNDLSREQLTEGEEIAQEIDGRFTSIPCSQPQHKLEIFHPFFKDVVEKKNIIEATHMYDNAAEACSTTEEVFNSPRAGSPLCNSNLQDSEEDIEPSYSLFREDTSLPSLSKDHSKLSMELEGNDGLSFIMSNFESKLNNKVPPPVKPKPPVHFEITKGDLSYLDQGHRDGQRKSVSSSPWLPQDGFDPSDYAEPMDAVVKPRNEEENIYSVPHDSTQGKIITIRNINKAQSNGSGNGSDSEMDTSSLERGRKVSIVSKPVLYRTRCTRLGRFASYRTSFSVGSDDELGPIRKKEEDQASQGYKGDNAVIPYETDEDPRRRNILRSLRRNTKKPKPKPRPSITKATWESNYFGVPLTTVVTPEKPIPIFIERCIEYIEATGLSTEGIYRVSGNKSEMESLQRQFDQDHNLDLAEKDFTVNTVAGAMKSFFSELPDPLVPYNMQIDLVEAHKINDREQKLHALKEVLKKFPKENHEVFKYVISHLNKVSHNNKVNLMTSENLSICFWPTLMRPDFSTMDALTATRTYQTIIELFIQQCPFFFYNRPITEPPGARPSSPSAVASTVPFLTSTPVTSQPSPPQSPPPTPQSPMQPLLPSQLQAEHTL
UniProt Q0VD83: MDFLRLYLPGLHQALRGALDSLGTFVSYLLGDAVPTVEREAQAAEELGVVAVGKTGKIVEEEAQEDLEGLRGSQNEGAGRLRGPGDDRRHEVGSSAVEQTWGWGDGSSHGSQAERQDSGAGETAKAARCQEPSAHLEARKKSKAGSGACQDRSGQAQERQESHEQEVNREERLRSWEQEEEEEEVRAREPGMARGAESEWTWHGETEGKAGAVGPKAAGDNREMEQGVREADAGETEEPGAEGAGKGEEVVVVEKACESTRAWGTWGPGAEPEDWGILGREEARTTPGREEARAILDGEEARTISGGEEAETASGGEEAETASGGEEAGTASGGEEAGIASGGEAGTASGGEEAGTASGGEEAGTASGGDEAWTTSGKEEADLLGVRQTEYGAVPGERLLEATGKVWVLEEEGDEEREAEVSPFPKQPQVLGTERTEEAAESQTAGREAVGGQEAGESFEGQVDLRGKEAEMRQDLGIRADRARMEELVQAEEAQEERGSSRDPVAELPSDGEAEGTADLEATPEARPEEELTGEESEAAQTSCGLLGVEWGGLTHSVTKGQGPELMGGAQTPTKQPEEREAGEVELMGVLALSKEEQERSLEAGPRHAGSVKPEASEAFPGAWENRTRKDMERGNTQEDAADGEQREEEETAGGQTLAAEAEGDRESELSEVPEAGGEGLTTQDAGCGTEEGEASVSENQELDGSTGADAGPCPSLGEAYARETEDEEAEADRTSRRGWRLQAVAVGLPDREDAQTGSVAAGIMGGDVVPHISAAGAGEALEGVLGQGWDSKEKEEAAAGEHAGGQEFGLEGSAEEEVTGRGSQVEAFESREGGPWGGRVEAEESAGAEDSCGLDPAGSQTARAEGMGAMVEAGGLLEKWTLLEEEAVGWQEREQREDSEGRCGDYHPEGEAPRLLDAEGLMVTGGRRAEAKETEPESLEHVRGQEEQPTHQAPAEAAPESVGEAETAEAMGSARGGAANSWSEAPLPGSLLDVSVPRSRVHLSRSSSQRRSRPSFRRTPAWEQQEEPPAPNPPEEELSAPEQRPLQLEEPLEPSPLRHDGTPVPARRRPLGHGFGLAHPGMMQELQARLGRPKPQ
UniProt Q8N6H7: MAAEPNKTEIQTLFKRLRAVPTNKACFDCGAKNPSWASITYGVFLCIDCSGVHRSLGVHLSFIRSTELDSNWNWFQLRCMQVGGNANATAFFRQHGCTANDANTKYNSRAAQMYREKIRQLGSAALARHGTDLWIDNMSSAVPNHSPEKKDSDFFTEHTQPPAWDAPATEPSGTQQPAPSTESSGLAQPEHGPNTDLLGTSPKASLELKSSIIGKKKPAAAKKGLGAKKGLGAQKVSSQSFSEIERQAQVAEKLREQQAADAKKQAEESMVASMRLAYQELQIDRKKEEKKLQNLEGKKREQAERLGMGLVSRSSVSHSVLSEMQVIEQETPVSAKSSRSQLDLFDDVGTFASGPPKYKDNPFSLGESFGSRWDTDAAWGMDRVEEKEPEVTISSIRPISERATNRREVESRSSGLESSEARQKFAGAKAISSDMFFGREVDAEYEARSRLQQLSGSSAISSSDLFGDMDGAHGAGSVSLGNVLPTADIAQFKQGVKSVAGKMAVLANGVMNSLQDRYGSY
UniProt O43182: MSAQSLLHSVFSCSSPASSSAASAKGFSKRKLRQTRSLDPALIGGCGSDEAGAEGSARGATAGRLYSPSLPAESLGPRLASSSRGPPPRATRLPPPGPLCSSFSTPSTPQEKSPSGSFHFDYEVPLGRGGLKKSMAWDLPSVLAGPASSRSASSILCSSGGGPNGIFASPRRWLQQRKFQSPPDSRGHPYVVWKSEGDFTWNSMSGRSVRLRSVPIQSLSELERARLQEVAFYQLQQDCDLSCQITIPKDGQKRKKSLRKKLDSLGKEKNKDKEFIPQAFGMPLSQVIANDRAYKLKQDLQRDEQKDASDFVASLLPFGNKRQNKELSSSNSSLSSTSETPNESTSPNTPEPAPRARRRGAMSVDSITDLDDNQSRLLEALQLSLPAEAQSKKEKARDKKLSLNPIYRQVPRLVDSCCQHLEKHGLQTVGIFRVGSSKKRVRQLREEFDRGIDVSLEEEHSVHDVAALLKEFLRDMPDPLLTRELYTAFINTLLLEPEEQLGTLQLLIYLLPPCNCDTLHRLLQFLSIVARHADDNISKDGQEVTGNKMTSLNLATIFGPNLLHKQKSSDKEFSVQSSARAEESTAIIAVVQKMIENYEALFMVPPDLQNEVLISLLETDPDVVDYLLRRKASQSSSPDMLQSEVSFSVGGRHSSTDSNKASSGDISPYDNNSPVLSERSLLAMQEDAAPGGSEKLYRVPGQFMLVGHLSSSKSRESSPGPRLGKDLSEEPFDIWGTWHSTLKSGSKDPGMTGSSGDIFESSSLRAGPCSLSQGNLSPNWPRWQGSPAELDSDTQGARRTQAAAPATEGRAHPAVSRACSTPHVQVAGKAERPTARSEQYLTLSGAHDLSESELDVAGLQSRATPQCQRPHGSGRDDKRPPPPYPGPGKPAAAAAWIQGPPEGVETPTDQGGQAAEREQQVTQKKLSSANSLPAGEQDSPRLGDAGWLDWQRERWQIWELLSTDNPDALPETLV
UniProt Q8TDY4: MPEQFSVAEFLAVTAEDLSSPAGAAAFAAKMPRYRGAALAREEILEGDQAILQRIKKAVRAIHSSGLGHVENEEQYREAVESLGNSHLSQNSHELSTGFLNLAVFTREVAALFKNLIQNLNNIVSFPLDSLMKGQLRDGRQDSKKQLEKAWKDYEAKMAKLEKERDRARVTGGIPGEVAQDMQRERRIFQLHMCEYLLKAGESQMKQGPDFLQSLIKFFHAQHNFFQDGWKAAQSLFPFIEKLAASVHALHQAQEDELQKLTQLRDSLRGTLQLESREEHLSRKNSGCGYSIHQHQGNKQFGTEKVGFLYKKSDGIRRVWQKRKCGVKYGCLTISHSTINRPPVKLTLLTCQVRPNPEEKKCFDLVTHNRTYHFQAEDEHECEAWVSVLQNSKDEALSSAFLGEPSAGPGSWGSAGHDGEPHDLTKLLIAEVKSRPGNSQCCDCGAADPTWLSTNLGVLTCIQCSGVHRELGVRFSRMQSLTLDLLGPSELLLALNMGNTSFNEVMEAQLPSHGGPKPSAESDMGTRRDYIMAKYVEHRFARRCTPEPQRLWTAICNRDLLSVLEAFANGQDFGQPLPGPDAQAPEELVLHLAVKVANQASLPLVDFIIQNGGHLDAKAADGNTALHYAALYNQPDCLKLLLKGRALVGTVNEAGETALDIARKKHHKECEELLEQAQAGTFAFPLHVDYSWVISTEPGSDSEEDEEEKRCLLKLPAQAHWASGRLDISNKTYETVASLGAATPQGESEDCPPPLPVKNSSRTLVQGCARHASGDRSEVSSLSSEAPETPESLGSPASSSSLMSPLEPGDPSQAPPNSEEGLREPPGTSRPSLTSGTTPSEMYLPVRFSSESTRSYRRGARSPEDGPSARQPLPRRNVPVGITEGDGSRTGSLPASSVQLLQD
UniProt Q6ZSZ5: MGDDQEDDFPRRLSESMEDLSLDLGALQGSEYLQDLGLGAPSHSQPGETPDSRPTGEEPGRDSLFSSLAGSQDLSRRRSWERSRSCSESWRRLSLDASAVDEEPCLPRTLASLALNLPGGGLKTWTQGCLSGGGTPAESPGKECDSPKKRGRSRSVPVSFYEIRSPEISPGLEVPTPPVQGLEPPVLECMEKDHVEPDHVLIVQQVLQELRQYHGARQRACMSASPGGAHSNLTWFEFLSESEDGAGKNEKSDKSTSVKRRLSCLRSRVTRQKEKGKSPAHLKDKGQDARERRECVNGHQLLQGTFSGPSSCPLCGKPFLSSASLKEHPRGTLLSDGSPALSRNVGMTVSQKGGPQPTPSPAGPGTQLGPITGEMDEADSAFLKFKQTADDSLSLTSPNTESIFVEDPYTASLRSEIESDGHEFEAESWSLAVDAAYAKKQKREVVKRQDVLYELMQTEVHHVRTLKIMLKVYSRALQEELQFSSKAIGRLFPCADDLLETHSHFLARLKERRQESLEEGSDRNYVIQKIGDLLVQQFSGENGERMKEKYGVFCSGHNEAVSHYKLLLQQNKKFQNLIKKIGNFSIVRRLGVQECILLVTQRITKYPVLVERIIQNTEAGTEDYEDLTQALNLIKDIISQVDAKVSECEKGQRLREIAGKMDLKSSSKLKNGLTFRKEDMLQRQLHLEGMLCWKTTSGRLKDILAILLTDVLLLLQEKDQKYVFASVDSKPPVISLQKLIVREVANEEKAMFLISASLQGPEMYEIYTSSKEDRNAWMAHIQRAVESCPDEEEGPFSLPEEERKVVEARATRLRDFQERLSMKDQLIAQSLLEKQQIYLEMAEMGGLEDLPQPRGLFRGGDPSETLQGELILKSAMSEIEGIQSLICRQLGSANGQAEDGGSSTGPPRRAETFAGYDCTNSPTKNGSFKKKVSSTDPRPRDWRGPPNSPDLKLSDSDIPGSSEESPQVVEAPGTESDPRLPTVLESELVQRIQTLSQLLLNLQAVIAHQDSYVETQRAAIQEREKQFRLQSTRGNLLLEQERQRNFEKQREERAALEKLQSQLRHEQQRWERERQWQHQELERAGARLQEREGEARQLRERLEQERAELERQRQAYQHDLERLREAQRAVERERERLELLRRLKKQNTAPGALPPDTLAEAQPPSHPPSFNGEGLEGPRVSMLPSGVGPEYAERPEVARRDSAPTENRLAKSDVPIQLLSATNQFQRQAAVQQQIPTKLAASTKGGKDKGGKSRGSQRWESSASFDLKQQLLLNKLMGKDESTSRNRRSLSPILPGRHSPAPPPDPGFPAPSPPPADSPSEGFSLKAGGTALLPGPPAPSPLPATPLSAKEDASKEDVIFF

Tests used:
Experiment in all cases: log2 fold change, soluble protein after heating vs DMSO (PISA); higher = thermal stabilisation; K562 lysate, 10 uM; active = over 0.2 and 3.5 SD of the protein, either way, in both replicates (recomputed)
nilotinib = compound: Cc1cn(-c2cc(NC(=O)c3ccc(C)c(Nc4nccc(-c5cccnc5)n4)c3)cc(C(F)(F)F)c2)cn1 [nilotinib]
In short: (§1)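 Thermal stability, expressed as log-two fold change relative to solvent controls, is given from duplicates. Crude K562 extract in PBS pH 7.4 with 1 mM MgCl2, at 1 mg/mL protein, was treated with 10 μM compound for 30 min and heated in aliquots for 3 min across 48°C-58°C. After pooling, adjustment to 0.5% NP-40 at 4°C and centrifugation at 21,000xg for 90 min, supernatant protein was measured by TMTpro 16plex LC-MS/MS with channel sums equalised.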

[1] = compound: Cc1nc(Nc2n[nH]c3c2CN(C(=O)N[C@H](CN(C)C)c2ccccc2)C3(C)C)c2sccc2n1
In short: as §1

dasatinib = compound: Cc1nc(Nc2ncc(C(=O)Nc3c(C)cccc3Cl)s2)cc(N2CCN(CCO)CC2)n1 [dasatinib]
In short: as §1

[2] = compound: Cc1ncc(-c2ccnc(Nc3ccc(S(C)(=O)=O)cc3)n2)n1C(C)C
In short: as §1

[3] = compound: Cn1cc(-c2ccc3c(c2)CCN3C(=O)Cc2cccc(C(F)(F)F)c2)c2c(N)ncnc21
In short: as §1

quisinostat = compound: Cn1cc(CNCC2CCN(c3ncc(C(=O)NO)cn3)CC2)c2ccccc21 [quisinostat]
In short: as §1

tipifarnib = compound: Cn1cncc1[C@@](N)(c1ccc(Cl)cc1)c1ccc2c(c1)c(-c1cccc(Cl)c1)cc(=O)n2C [tipifarnib]
In short: as §1

[4] = compound: NC(=O)Nc1cc(-c2cccc(F)c2)sc1C(=O)N[C@H]1CCCNC1
In short: as §1

[5] = compound: NC(=O)c1cnc(N[C@@H]2CCCC[C@@H]2N)nc1Nc1cccc(-n2nccn2)c1
In short: as §1

[6] = compound: NC1(c2ccc(-c3nc4ccn5c(=O)[nH]nc5c4cc3-c3ccccc3)cc2)CCC1
In short: as §1

[7] = compound: NCC(=O)Nc1ccc(-n2nc(C(F)(F)F)cc2-c2ccc3c(ccc4ccccc43)c2)cc1
In short: as §1

vorinostat = compound: O=C(CCCCCCC(=O)Nc1ccccc1)NO [vorinostat]
In short: as §1

silmitasertib = compound: O=C(O)c1ccc2c(c1)nc(Nc1cccc(Cl)c1)c1ccncc12 [silmitasertib]
In short: as §1

[8] = compound: O=C1NC(=O)C(c2cnc3ccccn23)=C1c1cn2c3c(cc(F)cc13)CN(C(=O)N1CCCCC1)CC2
In short: as §1

entospletinib = compound: c1cn2cc(-c3ccc4cn[nH]c4c3)nc(Nc3ccc(N4CCOCC4)cc3)c2n1 [entospletinib]
In short: as §1

Target	log2 fold change (nilotinib)	log2 fold change [1]	log2 fold change (dasatinib)	log2 fold change [2]	log2 fold change [3]	log2 fold change (quisinostat)	log2 fold change (tipifarnib)	log2 fold change [4]	log2 fold change [5]	log2 fold change [6]	log2 fold change [7]	log2 fold change (vorinostat)	log2 fold change (silmitasertib)	log2 fold change [8]	log2 fold change (entospletinib)
ARHGAP35 (UniProt Q9NRY4)	inactive: 0.027	inactive: -0.002	inactive: -0.043	inactive: 0.007	inactive: -0.007	inactive: -0.046	inactive: -0.045	inactive: 0.01	inactive: -0.019	inactive: -0.009	inactive: 0.014	inactive: -0.101	inactive: 0.018	inactive: 0.012	inactive: 0.015
APOBR (UniProt Q0VD83)	inactive: -0.02	inactive: -0.029	inactive: -0.009	inactive: -0.005	inactive: 0.01	inactive: -0.011	inactive: -0.021	inactive: -0.028	inactive: 0.002	inactive: -0.005	inactive: 0.074	inactive: 0.073	inactive: 0	inactive: -0.038	inactive: 0
ARFGAP2 (UniProt Q8N6H7)	inactive: -0.005	inactive: 0.009	inactive: 0.013	inactive: -0.044	inactive: 0.012	inactive: -0.033	inactive: -0.062	inactive: -0.024	inactive: -0.023	inactive: 0.02	inactive: -0.028	inactive: 0.054	inactive: 0.007	inactive: -0.082	inactive: 0.011
ARHGAP6 (UniProt O43182)	inactive: -0.003	inactive: -0.014	inactive: -0.102	inactive: 0	inactive: 0.052	inactive: -0.019	inactive: 0.02	inactive: 0.034	inactive: -0.025	inactive: -0.039	inactive: 0.058	active: -0.346	inactive: 0.089	inactive: 0.025	inactive: 0.004
ARHGAP21 (UniProt Q5T5U3)	inactive: -0.017	inactive: -0.014	inactive: -0.039	inactive: -0.036	inactive: 0.017	inactive: -0.06	inactive: 0.019	inactive: 0.053	inactive: 0.002	inactive: -0.021	inactive: 0.021	active: -0.364	inactive: 0.014	inactive: -0.041	inactive: -0.104
ASAP3 (UniProt Q8TDY4)	inactive: -0.171	inactive: -0.016	inactive: -0.095	inactive: 0.119	inactive: 0.037	inactive: -0.068	inactive: 0.071	inactive: 0.095	inactive: -0.015	inactive: -0.024	inactive: 0.009	inactive: -0.219	inactive: 0.023	inactive: -0.014	inactive: 0.029
ARIH2 (UniProt O95376)	inactive: 0.008	inactive: -0.01	inactive: -0.063	inactive: -0.015	inactive: -0.04	inactive: 0.065	inactive: 0.011	inactive: -0.056	inactive: 0.021	inactive: -0.024	inactive: -0.005	inactive: 0.157	inactive: 0.019	inactive: -0.006	inactive: -0.018
ARPC5 (UniProt O15511)	inactive: -0.022	inactive: 0.015	inactive: 0	inactive: 0.027	inactive: 0.024	inactive: 0.009	inactive: -0.003	inactive: -0.022	inactive: -0.019	inactive: 0.008	inactive: 0.006	inactive: 0.091	inactive: -0.004	inactive: -0.02	inactive: -0.015
ARHGEF18 (UniProt Q6ZSZ5)	inactive: -0.135	inactive: -0.001	inactive: 0.007	inactive: 0.084	inactive: -0.031	inactive: -0.12	inactive: -0.061	inactive: 0.011	inactive: 0	inactive: 0.025	inactive: 0.034	inactive: -0.078	inactive: -0.012	inactive: -0.061	inactive: 0.046
